Experimental data: publication doi:10.1101/2025.11.26.690573

The chains behind the UniProt entries cited, without tags or fusion partners.
UniProt Q7L5N1: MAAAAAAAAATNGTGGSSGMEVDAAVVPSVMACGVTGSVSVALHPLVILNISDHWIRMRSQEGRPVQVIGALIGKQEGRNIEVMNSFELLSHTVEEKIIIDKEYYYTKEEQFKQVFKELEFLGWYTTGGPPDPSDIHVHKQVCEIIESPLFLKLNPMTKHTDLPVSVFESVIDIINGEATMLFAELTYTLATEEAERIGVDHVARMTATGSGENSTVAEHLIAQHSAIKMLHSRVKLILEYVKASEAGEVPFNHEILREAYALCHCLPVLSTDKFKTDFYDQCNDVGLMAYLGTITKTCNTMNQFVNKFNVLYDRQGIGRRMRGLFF
UniProt P61201: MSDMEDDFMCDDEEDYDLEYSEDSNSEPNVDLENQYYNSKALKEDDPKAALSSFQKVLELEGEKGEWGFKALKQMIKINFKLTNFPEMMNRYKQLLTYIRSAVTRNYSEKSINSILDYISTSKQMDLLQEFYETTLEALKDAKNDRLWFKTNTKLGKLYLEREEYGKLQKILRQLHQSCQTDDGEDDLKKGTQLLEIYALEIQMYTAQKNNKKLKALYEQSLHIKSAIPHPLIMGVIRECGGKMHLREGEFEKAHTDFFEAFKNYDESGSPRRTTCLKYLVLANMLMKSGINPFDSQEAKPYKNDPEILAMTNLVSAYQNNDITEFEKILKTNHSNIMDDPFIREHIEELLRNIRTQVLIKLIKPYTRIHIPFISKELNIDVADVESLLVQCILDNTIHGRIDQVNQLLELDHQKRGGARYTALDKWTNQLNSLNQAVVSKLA
UniProt Q92466: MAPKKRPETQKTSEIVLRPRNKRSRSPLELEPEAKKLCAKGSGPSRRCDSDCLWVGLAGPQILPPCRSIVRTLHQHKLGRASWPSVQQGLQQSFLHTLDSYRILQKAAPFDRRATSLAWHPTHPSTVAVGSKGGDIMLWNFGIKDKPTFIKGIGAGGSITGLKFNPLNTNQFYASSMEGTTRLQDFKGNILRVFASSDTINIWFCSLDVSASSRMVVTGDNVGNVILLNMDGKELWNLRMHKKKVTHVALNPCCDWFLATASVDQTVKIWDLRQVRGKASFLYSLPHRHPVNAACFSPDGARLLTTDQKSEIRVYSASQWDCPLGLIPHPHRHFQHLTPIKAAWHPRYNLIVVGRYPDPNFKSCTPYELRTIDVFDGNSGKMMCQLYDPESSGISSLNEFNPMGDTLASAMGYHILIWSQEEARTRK
UniProt Q13619: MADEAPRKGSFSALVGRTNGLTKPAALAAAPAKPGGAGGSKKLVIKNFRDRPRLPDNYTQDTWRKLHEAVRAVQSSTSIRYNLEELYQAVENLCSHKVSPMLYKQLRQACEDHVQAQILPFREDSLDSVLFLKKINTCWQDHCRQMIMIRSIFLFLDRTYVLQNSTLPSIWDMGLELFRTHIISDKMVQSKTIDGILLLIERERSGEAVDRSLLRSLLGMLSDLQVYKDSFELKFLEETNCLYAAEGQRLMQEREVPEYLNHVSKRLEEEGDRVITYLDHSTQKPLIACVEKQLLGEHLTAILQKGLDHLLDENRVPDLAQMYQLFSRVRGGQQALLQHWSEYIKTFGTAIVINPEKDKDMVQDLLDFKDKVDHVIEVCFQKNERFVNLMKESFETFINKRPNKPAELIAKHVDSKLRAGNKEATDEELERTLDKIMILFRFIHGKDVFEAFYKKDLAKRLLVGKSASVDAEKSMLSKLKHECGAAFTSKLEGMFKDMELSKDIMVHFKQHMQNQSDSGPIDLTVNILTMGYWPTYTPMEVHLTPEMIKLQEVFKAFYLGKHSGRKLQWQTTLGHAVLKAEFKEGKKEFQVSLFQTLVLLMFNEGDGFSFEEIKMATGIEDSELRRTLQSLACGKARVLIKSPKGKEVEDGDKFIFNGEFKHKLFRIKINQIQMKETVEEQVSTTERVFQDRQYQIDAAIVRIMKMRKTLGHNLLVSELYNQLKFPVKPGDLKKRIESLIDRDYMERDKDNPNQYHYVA
UniProt Q16531: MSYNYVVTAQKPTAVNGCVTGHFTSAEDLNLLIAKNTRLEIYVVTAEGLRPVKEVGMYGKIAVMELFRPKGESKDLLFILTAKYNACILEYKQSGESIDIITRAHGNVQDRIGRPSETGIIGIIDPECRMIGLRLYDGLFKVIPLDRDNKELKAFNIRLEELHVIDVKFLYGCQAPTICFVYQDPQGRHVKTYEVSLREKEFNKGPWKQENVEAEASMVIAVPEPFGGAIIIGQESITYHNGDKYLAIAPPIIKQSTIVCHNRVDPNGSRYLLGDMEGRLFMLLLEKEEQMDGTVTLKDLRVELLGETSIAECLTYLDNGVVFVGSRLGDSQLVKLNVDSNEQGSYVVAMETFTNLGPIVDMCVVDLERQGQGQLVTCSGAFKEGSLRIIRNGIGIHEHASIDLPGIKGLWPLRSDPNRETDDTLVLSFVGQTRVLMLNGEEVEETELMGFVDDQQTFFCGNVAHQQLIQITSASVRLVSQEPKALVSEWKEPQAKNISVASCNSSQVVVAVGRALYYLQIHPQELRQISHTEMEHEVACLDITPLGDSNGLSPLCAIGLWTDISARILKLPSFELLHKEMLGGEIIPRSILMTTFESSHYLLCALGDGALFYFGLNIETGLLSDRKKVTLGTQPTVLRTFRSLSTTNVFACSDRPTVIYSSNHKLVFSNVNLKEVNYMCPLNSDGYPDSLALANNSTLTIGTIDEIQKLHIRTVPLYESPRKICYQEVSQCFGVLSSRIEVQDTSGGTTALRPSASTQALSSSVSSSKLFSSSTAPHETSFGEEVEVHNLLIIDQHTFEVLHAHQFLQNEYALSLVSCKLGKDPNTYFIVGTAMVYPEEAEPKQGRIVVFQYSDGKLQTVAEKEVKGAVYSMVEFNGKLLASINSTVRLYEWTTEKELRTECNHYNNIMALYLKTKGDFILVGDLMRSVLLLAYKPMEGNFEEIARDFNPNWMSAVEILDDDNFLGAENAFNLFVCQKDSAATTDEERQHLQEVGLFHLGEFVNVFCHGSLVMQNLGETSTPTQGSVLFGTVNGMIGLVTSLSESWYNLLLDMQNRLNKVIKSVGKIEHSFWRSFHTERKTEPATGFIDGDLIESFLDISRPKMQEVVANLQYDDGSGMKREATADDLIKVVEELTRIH
UniProt Q9UBF6: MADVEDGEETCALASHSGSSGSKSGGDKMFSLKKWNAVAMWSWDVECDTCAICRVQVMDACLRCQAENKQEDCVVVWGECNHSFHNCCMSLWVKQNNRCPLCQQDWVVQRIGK

Key:
Assay in all cases: affinity purification with mass spectrometry; HEK293 cells with HBTH-CSN2 or HBTH-CSN6, 1 μM CSN5i-3 or DMSO for 16 hr, in-cell cross-linking with 0.025% formaldehyde, streptavidin resin; LC-MS/MS (DDA and DIA)
HBTH-tagged CSN6 (human) [1] = target: HBTH-tagged CSN6 (human) (UniProt Q7L5N1)
HBTH-tagged CSN2 (human) [2] = target: HBTH-tagged CSN2 (human) (UniProt P61201)
HBTH-tagged CSN6 (human) [3] = target: HBTH-tagged CSN6 (human) (UniProt Q7L5N1); remark: listed apart in the source
HBTH-tagged CSN2 (human) [4] = target: HBTH-tagged CSN2 (human) (UniProt P61201); remark: listed apart in the source

Molecule: DDB2 (from UniProt Q92466 1-427)
binding (HBTH-tagged CSN6 (human) [1]): binds | binding (HBTH-tagged CSN2 (human) [2]): binds

B1: DCAF4 (protein, UniProt Q8WV16 1-495)
chain: MNKSRWQSRRRHGRRSHQQNPWFRLRDSEDRSDSRAAQPAHDSGHGDDESPSTSSGTAGTSSVPELPGFYFDPEKKRYFRLLPGHNNCNPLTKESIRQKEMESKRLRLLQEEDRRKKIARMGFNASSMLRKSQLGFLNVTNYCHLAHELRLSCMERKKVQIRSMDPSALASDRFNLILADTNSDRLFTVNDVKVGGSKYGIINLQSLKTPTLKVFMHENLYFTNRKVNSVCWASLNHLDSHILLCLMGLAETPGCATLLPASLFVNSHPGIDRPGMLCSFRIPGAWSCAWSLNIQANNCFSTGLSRRVLLTNVVTGHRQSFGTNSDVLAQQFALMAPLLFNGCRSGEIFAIDLRCGNQGKGWKATRLFHDSAVTSVRILQDEQYLMASDMAGKIKLWDLRTTKCVRQYEGHVNEYAYLPLHVHEEEGILVAVGQDCYTRIWSLHDARLLRTIPSPYPASKADIPSVAFSSRLGGSRGAPGLLMAVGQDLYCYSYS
binding (HBTH-tagged CSN6 (human) [3]): binds | binding (HBTH-tagged CSN2 (human) [4]): binds

B2: FBXL12 (protein, UniProt Q9NXK8 1-326)
chain: MATLVELPDSVLLEIFSYLPVRDRIRISRVCHRWKRLVDDRWLWRHVDLTLYTMRPKVMWHLLRRYMASRLHSLRMGGYLFSGSQAPQLSPALLRALGQKCPNLKRLCLHVADLSMVPITSLPSTLRTLELHSCEISMAWLHKQQDPTVLPLLECIVLDRVPAFRDEHLQGLTRFRALRSLVLGGTYRVTETGLDAGLQELSYLQRLEVLGCTLSADSTLLAISRHLRDVRKIRLTVRGLSAPGLAVLEGMPALESLCLQGPLVTPEMPSPTEILSSCLTMPKLRVLELQGLGWEGQEAEKILCKGLPHCMVIVRACPKESMDWWM
binding (HBTH-tagged CSN6 (human) [3]): binds | binding (HBTH-tagged CSN2 (human) [4]): binds

The remaining lines, values ahead:

binding (HBTH-tagged CSN6 (human) [1]): binds
Molecule: CUL4A (endogenous) (from UniProt Q13619 1-759)

binding (HBTH-tagged CSN6 (human) [1]): binds
Molecule: DDB1 (from UniProt Q16531 1-1140)

binding (HBTH-tagged CSN6 (human) [1]): binds | binding (HBTH-tagged CSN2 (human) [2]): binds
Molecule: RBX2 (endogenous) (from UniProt Q9UBF6 1-113)

Like-named read-outs stand apart in the source and are kept apart here. No constants are given. Whether binding was seen depends on the method and setting. Binding seen in cells or lysates may run through a third protein. Here binding means that the protein was enriched with, or labelled near, the bait; the list need not be complete. Each block holds one molecule with its values, some of them ahead of it.
